Laboratory results taken from PMC10798921, “Target-induced hot spot construction for sensitive and selective surface-enhanced Raman scattering detection of matrix metalloproteinase MMP-9”.
For at least one entry, the source does not settle the construct or the ends of the probe. Negatives hold for the conditions tested.

Tested on: MMP-11
Assay: SERS nanosensor (aptamer strand displacement)
Settings: 100 ng/mL, AuNS-2 with DNA2/DTNB present; DNA1 3' ThioMC3-D; duplex annealed in 8 mM phosphate, 0.8 mM MgCl2, 20 mM NaCl; cell supernatant assay at 37 C for 2 h; recombinant protein; label: 13-nm gold nanosphere via DNA1 3' thiol

“TCGTATGGCACGGGGTTGGTGTTGGGTTGG / GGTGTGCCATACGAAA [MMP-9 aptamer (annealed to DNA1 on AuNS-1)]”: no binding.
